According to PubChem BioAssay AID504834 (National Center for Advancing Translational Sciences (NCATS), 2011):
Several values for one entry are separate records, joined by “and”; a condition that tells them apart may be missing. Identical values can stand only once. The whole screen tested about 320,000 compounds, of which about 22,000 (6.9%) were called active. This list was built around the results that the source calls inconclusive (neither active nor inactive); the mix of calls is not that of the screen. Calls come from the whole dose curve; as a rule, active = well fitted inhibition curve with a large enough effect; inconclusive = small, poorly fitted or top-dose-only effect, or another doubt; inactive = no such curve, though single readings can be large or run the other way. Potencies beside an inconclusive call are fits to weak or partial responses and may not hold up.

Experiment: Primary qHTS for delayed death inhibitors of the malarial parasite plastid, 96 hour incubation
Settings: P. falciparum luciferase reporter growth; series mostly up to 28.7 µM; activity change, negative = inhibition: at the top concentration
Summary of the method: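 Infected RBCs, 2% Hct / 0.05% parasitemia final; luciferase-reporter P. falciparum; cpd 96 h, 37 C, 5% CO2; luciferase detection reagent; luminescence.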
% is set by controls: 0 for no effect and ±100 for the full control effect; potency is the fitted concentration of half-maximal effect.

SMILES	Potency	activity change, negative = inhibition
CC1CCCCC12NC(=O)N(CC(=O)NCCc1ccc(F)cc1)C2=O (stereo not given)	inconclusive: 11.7 µM [inhibitor, single point]	
COc1cccc(N2CCN(CC(=O)Nc3ccc(S(=O)(=O)N4CCCCCC4)cc3)CC2)c1	inconclusive: 18.5 µM [inhibitor, single point]	
CC(C)C(O)P(=O)(OCc1ccccc1)c1ccc(N(C)C)cc1 (stereo not given)		inactive: 0%
C=CCN(C(=O)c1csnn1)C(C(=O)NC1CCCCC1)c1ccccc1 (stereo not given)	inconclusive: 18.5 µM [inhibitor, single point]	
O=S(=O)(c1ccccc1)C1(S(=O)(=O)c2ccccc2)CCCC1	inconclusive: 3.29 µM [inhibitor, partial curve, poor fit]	
CCn1cc(C(=O)NCCc2ccc(Cl)cc2)c(=O)c2ccc(C)nc21		inactive: 7.77%
O=C(CSc1nnc(CNC(=O)c2ccccc2)o1)NCc1ccccc1Cl		inactive: -27.9%
CC1=NN(c2ccccc2)C(=O)/C1=C/c1ccc(Cl)cc1	inconclusive: 18.5 µM [inhibitor, single point]	
O=C(O)C(Cc1c[nH]c2ccccc12)N1C(=O)C2C3c4ccccc4C(c4ccccc43)C2C1=O (stereo not given)	inconclusive: 11.7 µM [inhibitor, partial curve]	
CC[C@@H]1[C@H]2CCCC(=O)N3CC[C@@H](C[C@@H]1Nc1ccccc1)[C@@H]23		inactive: 0%
COc1ccc(OC)c(C(=O)CSc2nc3ncccc3[nH]2)c1	inconclusive: 18.5 µM [inhibitor, single point]	
COCCCNC(=O)C(=O)NCC1CCCN1S(=O)(=O)c1cccs1 (stereo not given)	inconclusive: 18.5 µM [inhibitor, single point]	
Cn1c(SCC(=O)N2CCc3ccccc3C2)nnc1-c1ccncc1	inconclusive: 18.5 µM [inhibitor, single point]	
CCS(=O)(=O)C1=NN2C(=N)/C(=C\c3ccc(SCc4ccco4)o3)C(=O)N=C2S1		inactive: -35.1%
O=C(c1cnn2c(C(F)(F)F)cc(-c3ccccc3)nc12)N1CCCCC1c1cccnc1 (stereo not given)	inconclusive: 18.5 µM [inhibitor, single point]	
COc1ccc(-c2nc(-c3ccc(NC(=O)c4ccncc4)cc3)no2)cc1OC		inactive: -8.42%
Fc1ccc(C[n+]2csc3ccccc32)cc1		inactive: 162%

SMILES	Potency	activity change, negative = inhibition
CN(Cc1cccs1)C(=O)CCNS(=O)(=O)c1ccc(Br)cc1	inconclusive: 14.7 µM [inhibitor, partial curve, poor fit]	
Cc1cc(S(=O)(=O)NCC(C)C)ccc1OCC(=O)NCC1CCCO1 (stereo not given)	inconclusive: 18.5 µM [inhibitor, single point]	
CC(C)CC(=O)NC(=S)Nc1cccc(NC(=O)c2ccccc2)c1		inactive: -2.76%
CCCCC(=O)NCCNc1nc2c(c(=O)n(C)c(=O)n2C)n1Cc1ccc(F)cc1	inconclusive: 18.5 µM [inhibitor, partial curve, poor fit]	
COc1ccc(OC)c(Nc2nc(N)nc(CCl)n2)c1	inconclusive: 11.7 µM [inhibitor, single point]	
CCN1C(=S)N[C@@H](CCc2ccccc2)[C@H](C(=O)OC)[C@H]1C	inconclusive: 4.15 µM [inhibitor, partial curve, poor fit] and inconclusive: 8.28 µM [inhibitor, partial curve]	
O=C(Nc1ccc(Cl)c(Cl)c1)c1cccc(S(=O)(=O)NCc2cccnc2)c1	inconclusive: 18.5 µM [inhibitor, single point]	
O=C(CN1CCN(S(=O)(=O)c2ccc(Br)cc2)CC1)N/N=C/c1ccc(Br)s1	inconclusive: 20.8 µM [inhibitor, single point]	
O=S(=O)(NCc1cccs1)c1ccccc1Cl		inactive: 10.7%
Cc1csc(NC(=O)c2ccc(Cn3nc(C)c(Br)c3C)o2)n1	inconclusive: 1.31 µM [inhibitor, partial curve, poor fit]	
COc1cc(-c2noc(C)c2C#CC2(O)CCCCC2)cc(OC)c1OC	inconclusive: 2.33 µM [inhibitor, full curve, poor fit]	
COc1cccc(NC(=O)CN(C)C(=O)c2ccc(N3CCCCC3)c([N+](=O)[O-])c2)c1	inconclusive: 18.5 µM [inhibitor, single point]	
CC(C)C(=O)Nc1cccc(NC(=S)NC(=O)c2ccc(Cl)cc2)c1		inactive: 6.18%
CSCCC(N=C1NS(=O)(=O)c2ccccc21)C(=O)NCCc1ccccc1 (stereo not given)		inactive: -16.1%
O=C1Nc2cc(Cl)cnc2N2CCCC12 (stereo not given)	active: 4.15 µM	
CC(C)c1nc2oc3c(=O)[nH]cnc3c2c2c1CCC2		inactive: -27.2%
O=C(NCc1cccnc1)c1cc(-c2ccccc2)on1	inconclusive: 18.5 µM [inhibitor, single point]	
